Some of the results follow.
Tests used:
Assay in all cases: log2 fold change, soluble protein after heating vs DMSO (PISA); higher = thermal stabilisation; K562 lysate, 10 uM; active = over 0.2 and 3.5 SD of the protein, either way, in both replicates (recomputed)
erlotinib = compound: C#Cc1cccc(Nc2ncnc3cc(OCCOC)c(OCCOC)cc23)c1 [erlotinib]
Procedure, shortened: (§1)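 K562 pellets were dounce-homogenised in PBS pH 7.4 containing 1 mM MgCl2, and the crude extract, at 1 mg/mL protein, was exposed to 10 μM compound for 30 min. Aliquots were heated for 3 min across 48°C-58°C, pooled, brought to 0.5% NP-40 at 4°C and spun at 21,000xg for 90 min, with the supernatant taken as soluble protein. TMTpro 16plex LC-MS/MS with equalised channel sums quantified that protein. Values are log-two fold changes in thermal stability relative to solvent controls, taken from duplicates.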

Chains of the proteins cited; added tags and fusions are not shown. Lines headed by an entry give the natural chain unless they say otherwise; changes in a name come on top.
UniProt P01023, whole entry, looked up: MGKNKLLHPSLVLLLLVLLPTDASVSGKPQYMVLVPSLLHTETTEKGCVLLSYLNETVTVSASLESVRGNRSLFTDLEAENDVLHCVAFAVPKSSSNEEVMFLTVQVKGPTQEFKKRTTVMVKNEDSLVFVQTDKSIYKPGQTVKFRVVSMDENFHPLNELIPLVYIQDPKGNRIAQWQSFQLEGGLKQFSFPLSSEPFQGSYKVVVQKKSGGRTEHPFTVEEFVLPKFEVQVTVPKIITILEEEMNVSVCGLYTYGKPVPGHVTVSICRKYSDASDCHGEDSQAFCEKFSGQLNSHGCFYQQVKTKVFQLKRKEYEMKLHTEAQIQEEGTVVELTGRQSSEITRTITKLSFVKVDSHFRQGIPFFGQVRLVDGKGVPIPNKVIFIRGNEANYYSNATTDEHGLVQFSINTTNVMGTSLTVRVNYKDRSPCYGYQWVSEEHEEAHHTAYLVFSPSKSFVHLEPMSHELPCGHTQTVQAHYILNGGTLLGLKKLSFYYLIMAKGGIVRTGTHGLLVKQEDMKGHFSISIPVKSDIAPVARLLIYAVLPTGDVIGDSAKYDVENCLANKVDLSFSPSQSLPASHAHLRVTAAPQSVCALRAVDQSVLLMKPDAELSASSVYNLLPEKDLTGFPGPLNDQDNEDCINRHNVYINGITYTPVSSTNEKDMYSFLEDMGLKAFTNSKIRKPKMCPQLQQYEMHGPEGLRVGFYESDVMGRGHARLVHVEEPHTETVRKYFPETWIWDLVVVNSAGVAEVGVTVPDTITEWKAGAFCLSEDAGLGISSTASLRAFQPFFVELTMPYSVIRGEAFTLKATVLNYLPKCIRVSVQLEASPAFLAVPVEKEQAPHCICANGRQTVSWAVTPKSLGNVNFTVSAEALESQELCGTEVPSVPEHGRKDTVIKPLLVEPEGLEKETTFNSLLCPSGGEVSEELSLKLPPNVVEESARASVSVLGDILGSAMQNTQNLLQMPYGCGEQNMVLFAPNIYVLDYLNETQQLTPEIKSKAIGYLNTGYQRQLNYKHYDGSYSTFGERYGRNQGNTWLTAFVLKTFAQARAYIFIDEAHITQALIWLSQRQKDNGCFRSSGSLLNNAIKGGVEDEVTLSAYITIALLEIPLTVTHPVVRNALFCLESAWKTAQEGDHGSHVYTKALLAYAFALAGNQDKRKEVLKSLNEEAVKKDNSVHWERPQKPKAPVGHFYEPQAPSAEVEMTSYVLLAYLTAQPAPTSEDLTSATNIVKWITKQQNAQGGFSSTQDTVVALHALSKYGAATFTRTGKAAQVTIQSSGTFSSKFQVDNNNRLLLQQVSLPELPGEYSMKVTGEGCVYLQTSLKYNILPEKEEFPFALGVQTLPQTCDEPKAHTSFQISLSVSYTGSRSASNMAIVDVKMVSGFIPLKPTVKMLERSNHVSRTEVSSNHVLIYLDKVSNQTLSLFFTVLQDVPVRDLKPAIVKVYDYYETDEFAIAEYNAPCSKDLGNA
UniProt Q8N2K0: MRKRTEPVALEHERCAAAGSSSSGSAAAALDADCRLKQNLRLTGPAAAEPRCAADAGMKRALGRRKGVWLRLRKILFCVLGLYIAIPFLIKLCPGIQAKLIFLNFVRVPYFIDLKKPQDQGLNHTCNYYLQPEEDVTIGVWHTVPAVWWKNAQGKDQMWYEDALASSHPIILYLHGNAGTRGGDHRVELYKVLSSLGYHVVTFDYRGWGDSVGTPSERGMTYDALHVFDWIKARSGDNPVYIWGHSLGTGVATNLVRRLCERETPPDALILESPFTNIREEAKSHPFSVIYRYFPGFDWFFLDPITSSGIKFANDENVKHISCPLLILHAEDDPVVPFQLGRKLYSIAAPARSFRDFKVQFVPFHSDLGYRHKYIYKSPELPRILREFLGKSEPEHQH
UniProt O94911: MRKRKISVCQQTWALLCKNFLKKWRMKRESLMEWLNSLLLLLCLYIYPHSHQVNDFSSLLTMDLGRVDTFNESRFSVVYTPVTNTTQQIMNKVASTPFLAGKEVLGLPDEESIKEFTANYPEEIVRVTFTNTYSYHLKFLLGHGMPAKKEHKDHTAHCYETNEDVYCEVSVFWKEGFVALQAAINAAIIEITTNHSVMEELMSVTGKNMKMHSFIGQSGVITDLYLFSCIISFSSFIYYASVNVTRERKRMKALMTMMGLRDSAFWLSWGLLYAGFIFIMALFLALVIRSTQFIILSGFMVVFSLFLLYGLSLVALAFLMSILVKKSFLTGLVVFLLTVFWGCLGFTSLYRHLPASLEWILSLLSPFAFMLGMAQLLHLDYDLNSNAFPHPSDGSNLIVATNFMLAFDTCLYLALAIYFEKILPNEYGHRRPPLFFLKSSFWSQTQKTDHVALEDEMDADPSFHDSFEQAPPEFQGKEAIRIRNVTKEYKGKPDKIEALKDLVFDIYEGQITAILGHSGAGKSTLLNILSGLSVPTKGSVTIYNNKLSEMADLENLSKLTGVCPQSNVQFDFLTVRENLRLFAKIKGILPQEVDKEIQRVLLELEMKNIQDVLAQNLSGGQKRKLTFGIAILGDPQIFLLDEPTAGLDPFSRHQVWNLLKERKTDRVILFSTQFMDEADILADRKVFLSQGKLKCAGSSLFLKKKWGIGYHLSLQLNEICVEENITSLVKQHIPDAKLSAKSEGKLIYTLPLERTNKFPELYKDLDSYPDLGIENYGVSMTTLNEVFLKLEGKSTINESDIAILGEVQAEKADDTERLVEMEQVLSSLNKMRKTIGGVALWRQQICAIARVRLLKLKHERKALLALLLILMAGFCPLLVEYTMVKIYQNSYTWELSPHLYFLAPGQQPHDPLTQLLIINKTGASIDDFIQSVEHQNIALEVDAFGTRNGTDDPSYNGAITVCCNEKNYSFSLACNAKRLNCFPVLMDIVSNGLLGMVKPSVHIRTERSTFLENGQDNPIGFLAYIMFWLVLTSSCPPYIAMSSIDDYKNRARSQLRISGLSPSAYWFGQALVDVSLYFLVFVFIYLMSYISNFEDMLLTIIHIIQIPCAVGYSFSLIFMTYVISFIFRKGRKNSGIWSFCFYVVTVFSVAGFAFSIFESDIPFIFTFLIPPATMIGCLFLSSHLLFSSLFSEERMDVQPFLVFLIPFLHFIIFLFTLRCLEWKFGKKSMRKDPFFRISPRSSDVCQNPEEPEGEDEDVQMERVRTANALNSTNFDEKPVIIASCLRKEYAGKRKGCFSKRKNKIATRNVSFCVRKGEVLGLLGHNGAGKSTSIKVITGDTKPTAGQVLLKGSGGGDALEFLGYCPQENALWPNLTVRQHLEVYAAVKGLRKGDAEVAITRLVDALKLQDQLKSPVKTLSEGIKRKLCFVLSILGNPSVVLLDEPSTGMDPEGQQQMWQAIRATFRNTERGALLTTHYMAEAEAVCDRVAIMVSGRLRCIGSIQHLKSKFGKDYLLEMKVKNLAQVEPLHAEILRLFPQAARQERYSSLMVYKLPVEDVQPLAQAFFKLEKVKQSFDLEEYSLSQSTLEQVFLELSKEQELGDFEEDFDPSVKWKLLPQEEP
UniProt O15438: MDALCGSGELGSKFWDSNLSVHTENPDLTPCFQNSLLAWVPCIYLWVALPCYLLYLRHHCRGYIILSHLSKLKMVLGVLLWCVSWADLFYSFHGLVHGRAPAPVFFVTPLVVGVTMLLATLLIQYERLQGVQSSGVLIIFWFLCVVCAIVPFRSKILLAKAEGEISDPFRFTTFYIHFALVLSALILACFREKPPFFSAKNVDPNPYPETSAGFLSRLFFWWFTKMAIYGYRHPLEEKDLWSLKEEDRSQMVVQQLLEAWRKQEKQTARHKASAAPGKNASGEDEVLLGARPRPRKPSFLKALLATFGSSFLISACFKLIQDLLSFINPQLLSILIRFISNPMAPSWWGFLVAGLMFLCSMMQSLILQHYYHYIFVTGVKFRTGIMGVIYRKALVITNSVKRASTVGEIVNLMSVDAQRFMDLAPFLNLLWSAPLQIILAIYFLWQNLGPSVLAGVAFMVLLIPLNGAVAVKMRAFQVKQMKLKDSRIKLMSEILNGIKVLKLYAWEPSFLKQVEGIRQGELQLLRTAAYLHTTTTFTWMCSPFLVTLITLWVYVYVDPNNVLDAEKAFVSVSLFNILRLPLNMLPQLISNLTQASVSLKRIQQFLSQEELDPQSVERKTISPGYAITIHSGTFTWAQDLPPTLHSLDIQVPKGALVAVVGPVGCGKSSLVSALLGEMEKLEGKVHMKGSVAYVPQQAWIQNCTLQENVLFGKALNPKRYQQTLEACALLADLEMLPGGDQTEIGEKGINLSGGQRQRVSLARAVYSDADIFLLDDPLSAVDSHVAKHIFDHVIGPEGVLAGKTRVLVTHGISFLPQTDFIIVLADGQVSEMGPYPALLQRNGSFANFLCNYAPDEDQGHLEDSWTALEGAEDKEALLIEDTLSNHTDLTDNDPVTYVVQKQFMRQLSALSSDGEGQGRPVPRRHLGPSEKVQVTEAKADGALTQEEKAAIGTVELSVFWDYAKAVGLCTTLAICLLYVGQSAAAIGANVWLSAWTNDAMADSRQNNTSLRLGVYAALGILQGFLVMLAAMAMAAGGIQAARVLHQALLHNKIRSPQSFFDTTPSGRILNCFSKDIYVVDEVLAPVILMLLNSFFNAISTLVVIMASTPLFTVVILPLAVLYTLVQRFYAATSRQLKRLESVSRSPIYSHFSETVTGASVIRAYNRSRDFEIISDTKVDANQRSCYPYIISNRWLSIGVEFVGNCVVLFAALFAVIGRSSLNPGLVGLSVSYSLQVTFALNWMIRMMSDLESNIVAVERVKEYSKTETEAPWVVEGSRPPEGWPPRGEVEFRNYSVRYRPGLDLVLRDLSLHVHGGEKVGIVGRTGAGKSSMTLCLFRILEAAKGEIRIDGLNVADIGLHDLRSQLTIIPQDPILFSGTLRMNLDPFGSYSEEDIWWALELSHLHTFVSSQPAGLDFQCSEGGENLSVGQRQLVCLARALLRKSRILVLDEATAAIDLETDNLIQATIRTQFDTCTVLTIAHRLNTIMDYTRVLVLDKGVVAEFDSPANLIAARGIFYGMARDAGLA
UniProt P53396: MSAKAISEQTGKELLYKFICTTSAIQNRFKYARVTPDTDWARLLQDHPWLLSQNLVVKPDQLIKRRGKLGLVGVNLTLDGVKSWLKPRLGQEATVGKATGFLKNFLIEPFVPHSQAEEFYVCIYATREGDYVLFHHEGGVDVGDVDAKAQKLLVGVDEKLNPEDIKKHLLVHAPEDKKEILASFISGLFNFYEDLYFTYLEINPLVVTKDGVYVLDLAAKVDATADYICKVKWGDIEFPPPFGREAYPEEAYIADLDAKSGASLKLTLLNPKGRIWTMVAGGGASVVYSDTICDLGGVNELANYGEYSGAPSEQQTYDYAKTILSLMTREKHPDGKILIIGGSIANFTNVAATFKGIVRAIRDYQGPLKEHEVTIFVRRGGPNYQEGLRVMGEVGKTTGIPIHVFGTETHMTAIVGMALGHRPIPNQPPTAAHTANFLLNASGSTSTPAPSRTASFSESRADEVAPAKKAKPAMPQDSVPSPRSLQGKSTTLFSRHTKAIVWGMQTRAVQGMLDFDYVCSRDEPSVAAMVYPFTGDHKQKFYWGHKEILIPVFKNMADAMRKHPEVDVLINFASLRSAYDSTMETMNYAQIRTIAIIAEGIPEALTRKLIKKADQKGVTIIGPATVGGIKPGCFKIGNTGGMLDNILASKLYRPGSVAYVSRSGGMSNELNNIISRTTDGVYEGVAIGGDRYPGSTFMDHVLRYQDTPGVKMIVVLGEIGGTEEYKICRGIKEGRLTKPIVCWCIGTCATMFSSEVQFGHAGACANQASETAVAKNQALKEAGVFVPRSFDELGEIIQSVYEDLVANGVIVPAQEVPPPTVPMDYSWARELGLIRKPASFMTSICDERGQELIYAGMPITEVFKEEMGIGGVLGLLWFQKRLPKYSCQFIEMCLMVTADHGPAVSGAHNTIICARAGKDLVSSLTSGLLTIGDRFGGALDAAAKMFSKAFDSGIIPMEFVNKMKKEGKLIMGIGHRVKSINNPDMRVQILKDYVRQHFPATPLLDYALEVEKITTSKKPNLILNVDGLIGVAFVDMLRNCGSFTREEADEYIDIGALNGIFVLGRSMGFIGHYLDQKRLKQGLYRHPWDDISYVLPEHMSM
UniProt Q96AP0: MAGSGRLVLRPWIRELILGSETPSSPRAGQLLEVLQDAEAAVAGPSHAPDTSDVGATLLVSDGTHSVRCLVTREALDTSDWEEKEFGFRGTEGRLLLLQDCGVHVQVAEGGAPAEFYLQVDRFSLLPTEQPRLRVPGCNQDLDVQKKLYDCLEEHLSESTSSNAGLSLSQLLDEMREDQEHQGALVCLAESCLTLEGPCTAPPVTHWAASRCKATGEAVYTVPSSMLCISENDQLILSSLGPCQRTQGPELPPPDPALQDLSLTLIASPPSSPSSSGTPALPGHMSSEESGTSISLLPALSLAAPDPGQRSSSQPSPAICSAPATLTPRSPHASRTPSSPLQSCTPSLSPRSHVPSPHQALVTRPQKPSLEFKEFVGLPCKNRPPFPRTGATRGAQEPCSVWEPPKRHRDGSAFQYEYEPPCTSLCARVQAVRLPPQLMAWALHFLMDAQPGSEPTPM

[1] = compound: C/C(=N\NC(=O)C1=CC(=CC=C1)S(=O)(=O)N2CCOCC2)/C3=C(C=CC(=C3)Cl)O
Procedure, shortened: as §1

[2] = compound: C1=CC(=CC=C1C2=NC3=C(N2)C=C(C=C3)C(=O)N)OC4=CC=C(C=C4)Cl
Procedure, shortened: as §1

[3] = compound: C1=CC2=C(C=CC(=C2)/C=C\3/C(=O)NC(=NCC4=CC=CS4)S3)N=C1
Procedure, shortened: as §1

[4] = compound: C1=CC2=NC=CN=C2C=C1/C=C/3\C(=O)NC(=O)S3
Procedure, shortened: as §1

[5] = compound: C1=CC=C(C=C1)C2=NC(=C(N2)C3=CC=NC=C3)C4=CC(=C(C=C4)Cl)O
Procedure, shortened: as §1

[6] = compound: C1=CC=C2C(=C1)C3=NNC4=CC=CC(=C43)C2=O
Procedure, shortened: as §1

[7] = compound: C1CCN(C1)C(=O)NC2=CC=CC(=C2)NC3=NC=C(C(=N3)NCCC4=CN=CN4)Br
Procedure, shortened: as §1

[8] = compound: C1CN(CCC1(CC2=CC=C(C=C2)Cl)N)C3=NC=NC4=C3C=CN4
Procedure, shortened: as §1

IRAK-1-4 Inhibitor I = compound: C1COCCN1CCN2C3=CC=CC=C3N=C2NC(=O)C4=CC(=CC=C4)[N+](=O)[O-] [IRAK-1-4 Inhibitor I]
Procedure, shortened: as §1

Measured: log2 fold change

AARS (UniProt P49588)
inactive: erlotinib -0.005 | [1] 0.028 | [2] 0.003 | [3] -0.008 | [4] -0.011 | [5] -0.008 | [6] -0.003 | [7] 0.005 | [8] -0.013 | IRAK-1-4 Inhibitor I -0.011

ABT1 (UniProt Q9ULW3)
inactive: erlotinib 0 | [1] -0.154 | [2] 0.049 | [3] -0.002 | [4] -0.031 | [5] 0.002 | [6] -0.131 | [7] -0.072 | [8] -0.008 | IRAK-1-4 Inhibitor I 0.056

ABRAXAS1 (UniProt Q6UWZ7)
inactive: erlotinib -0.022 | [1] -0.023 | [2] 0.028 | [3] 0.047 | [4] -0.087 | [5] 0.075 | [6] -0.041 | [7] -0.024 | [8] 0.128 | IRAK-1-4 Inhibitor I -0.081

ACAT1 (UniProt P24752)
inactive: erlotinib 0.011 | [1] 0.006 | [2] -0.015 | [3] 0.015 | [4] 0.017 | [5] -0.002 | [6] -0.007 | [7] -0.028 | [8] 0.015 | IRAK-1-4 Inhibitor I 0.017

A2M (UniProt P01023)
inactive: erlotinib -0.016 | [1] 0.056 | [2] 0.009 | [3] 0.063 | [4] 0.016 | [5] 0.03 | [6] -0.064 | [7] 0.039 | [8] 0.005 | IRAK-1-4 Inhibitor I -0.009

ACO1 (UniProt P21399)
inactive: erlotinib -0.026 | [1] 0.004 | [2] -0.015 | [3] 0.011 | [4] -0.006 | [5] -0.001 | [6] -0.01 | [7] -0.005 | [8] -0.018 | IRAK-1-4 Inhibitor I -0.007

ACIN1 (UniProt E7EQT4)
inactive: erlotinib 0.001 | [1] -0.16 | [2] 0 | [3] 0.05 | [4] -0.027 | [5] -0.057 | [6] -0.009 | [7] 0.008 | [8] -0.027 | IRAK-1-4 Inhibitor I 0.012

ABHD12 isoform 2 (UniProt Q8N2K0)
inactive: erlotinib -0.027 | [1] -0.031 | [2] -0.062 | [3] 0.074 | [4] 0.037 | [5] -0.064 | [6] 0 | [7] -0.03 | [8] 0.048 | IRAK-1-4 Inhibitor I 0.014

ABL2 (UniProt P42684)
inactive: erlotinib -0.046 | [1] 0.068 | [2] 0.053 | [3] -0.014 | [4] -0.013 | [5] 0.045 | [6] -0.003 | [7] -0.065 | [8] -0.141 | IRAK-1-4 Inhibitor I -0.068

ABCC10 (UniProt Q5T3U5)
inactive: erlotinib -0.002 | [2] 0.084 | [5] -0.129 | IRAK-1-4 Inhibitor I -0.157

AASDH (UniProt Q4L235)
inactive: erlotinib 0.018 | [1] -0.047 | [2] -0.094 | [3] -0.008 | [4] 0.011 | [5] 0.019 | [6] 0.056 | [7] 0.12 | [8] 0.005 | IRAK-1-4 Inhibitor I 0.06

AAK1 (UniProt Q2M2I8)
inactive: erlotinib 0.044 | [1] -0.081 | [2] -0.114 | [3] 0.27 | [4] 0.082 | [5] -0.002 | [6] 0.283 | [7] 0.12 | [8] -0.065 | IRAK-1-4 Inhibitor I 0.156

ABHD10 (UniProt Q9NUJ1)
inactive: erlotinib -0.01 | [1] 0.011 | [2] 0.006 | [3] 0.001 | [4] -0.01 | [5] 0.012 | [6] -0.007 | [7] -0.031 | [8] 0.026 | IRAK-1-4 Inhibitor I 0.006

ABI2 (UniProt Q9NYB9)
inactive: erlotinib -0.02 | [1] -0.001 | [2] -0.022 | [3] -0.011 | [4] -0.002 | [5] 0.051 | [6] -0.008 | [7] 0.005 | [8] 0.015 | IRAK-1-4 Inhibitor I -0.009

ABCA8 isoform 3 (UniProt O94911)
inactive: erlotinib 0.008 | [2] 0.085

ACBD7 (UniProt Q8N6N7)
inactive: erlotinib -0.006 | [2] -0.049

AARSD1 (UniProt Q9BTE6)
inactive: [4] 0.037 | [7] -0.16 | [8] 0

ABHD13 (UniProt Q7L211)
inactive: [1] 0.015 | [3] 0.021 | [4] 0.011 | [6] -0.071 | [7] 0.176 | [8] 0.04

ABCD4 (UniProt O14678)
inactive: erlotinib -0.476 | [2] 0.136

ABCC3 isoform 4 (UniProt O15438)
inactive: [5] -0.016 | IRAK-1-4 Inhibitor I -0.077

Copied from above (3 entries):
AARSD1 (UniProt Q9BTE6)
inactive: [4] 0.037 | [7] -0.16 | [8] 0

ABHD13 (UniProt Q7L211)
inactive: [1] 0.015 | [3] 0.021 | [4] 0.011 | [6] -0.071 | [7] 0.176 | [8] 0.04

ABCD4 (UniProt O14678)
inactive: erlotinib -0.476 | [2] 0.136

(next part)

ACLY isoform 2 (UniProt P53396)
inactive: [1] -0.122 | [3] 0.002 | [4] -0.018 | [5] 0.012 | [6] -0.034 | [7] -0.027 | [8] -0.029 | IRAK-1-4 Inhibitor I -0.053

ACD (UniProt Q96AP0)
inactive: [5] 0.124 | IRAK-1-4 Inhibitor I 0.304

A0A494C100, A0A494C100
inactive: [1] 0.099 | [3] -0.178 | [4] -0.053 | [6] -0.015

A0A494C071, A0A494C071
inactive: [4] -0.066

ABCF1 (UniProt Q8NE71)
inactive: erlotinib -0.001 | [1] 0.033 | [2] -0.013 | [3] 0.003 | [4] -0.006 | [5] 0.015 | [6] 0.003 | [7] 0.009 | [8] 0.01 | IRAK-1-4 Inhibitor I -0.028

ABHD4 (UniProt Q8TB40)
inactive: [1] 0.038 | [3] -0.025 | [6] 0.146

ACAT1, A0A5F9ZHJ0
inactive: [5] -0.128 | IRAK-1-4 Inhibitor I 0.075

ABHD15 (UniProt Q6UXT9)
inactive: erlotinib -0.039 | [1] -0.016 | [2] -0.05 | [3] -0.049 | [5] 0.003 | [6] 0.002 | [7] -0.007 | [8] 0.012 | IRAK-1-4 Inhibitor I -0.033

ACAP3 (UniProt Q96P50)
inactive: [4] 0.082 | [5] -0.053 | [7] -0.045 | [8] 0.095 | IRAK-1-4 Inhibitor I -0.318

ABI1 isoform 6 (UniProt Q8IZP0)
inactive: [7] -0.167 | [8] 0.213

ACBD5 (UniProt Q5T8D3)
inactive: erlotinib -0.035 | [2] -0.034 | [5] -0.085 | IRAK-1-4 Inhibitor I 0.124

AARS1 (UniProt H3BPK7)
inactive: [1] 0.147 | [3] -0.051 | [6] -0.049

ACAD8 (UniProt Q9UKU7)
inactive: [1] 0.066 | [3] -0.077 | [4] 0.073 | [6] -0.003

ACE (UniProt P12821)
inactive: erlotinib -0.009 | [1] 0.027 | [2] -0.054 | [3] -0.092 | [6] -0.012

ABTB2 (UniProt Q8N961)
inactive: [4] 0.097 | [5] 0.228 | IRAK-1-4 Inhibitor I 0.224

2 records picked at random from the list so far, as already listed:
ACAT1, A0A5F9ZHJ0
inactive: [5] -0.128 | IRAK-1-4 Inhibitor I 0.075

ACLY isoform 2 (UniProt P53396)
inactive: [1] -0.122 | [3] 0.002 | [4] -0.018 | [5] 0.012 | [6] -0.034 | [7] -0.027 | [8] -0.029 | IRAK-1-4 Inhibitor I -0.053

Remaining list, next part:

ABHD18 (UniProt Q0P651)
inactive: erlotinib -0.118 | [2] -0.217 | [7] -0.019 | [8] -0.047

A2ML1 (UniProt A8K2U0)
inactive: erlotinib -0.067 | [2] -0.112 | [4] 0.379 | [5] 0.106 | IRAK-1-4 Inhibitor I -0.852

ACAD10 isoform 5 (UniProt Q6JQN1)
inactive: erlotinib 0.089 | [2] -0.032 | [5] 0.067 | [7] -0.048 | [8] 0.032 | IRAK-1-4 Inhibitor I -0.018

ABHD3 (UniProt Q8WU67)
inactive: [5] 0.077 | IRAK-1-4 Inhibitor I -0.068

ABRACL (UniProt Q9P1F3)
inactive: erlotinib -0.013 | [2] 0.056 | [4] 0.103
